# Results reported in article doi:10.1101/2020.05.07.083568.
# No constants are given. Whether binding was seen depends on the method and setting. Binding seen in cells or lysates may run through a third protein. These calls come from enrichment with a bait or labelling near it, and not all partners need be listed.
# B1: kinetoplastid membrane proteins, KMP-11 (protein, UniProt P69301 1-92)
# chain: MATTYEEFAAKLDRLDAEFAKKMEEQNKRFFADKPDEATLSPEMKEHYEKFEKMIQEHTDKFNKKMREHSEHFKAKFAELLEQQKNAQFPGK
# B2: TbSMP1-1 (endogenous) (protein, UniProt Q4GYZ8 1-123)
# chain: MGCGGSKTSTVEFINGQPTVQGDEIVKGFNEGNGLLFRIVKTRAGRWAYYNDTLDYDMHVKVTFSEDCRIKALGQTRLEKLESGESVATVVVKPCATELFIEGHVNGYKAKMDAIPITDGDRQ
# modifications: N-terminal myristoylation site (G2)
# Biological target: 3HA-BioID2-TbUnc119 (Trypanosoma brucei) (UniProt Q586Q9)
# Assay: proximity labelling
row,Binder,binding
1,B1,binds
2,B2,binds
